From paper doi:10.1101/2025.06.18.660428
Results are given in words; binding and its absence hold for the method and conditions named. In cells and extracts the contact can be indirect. A yes stands for co-enrichment or nearness to the bait. Other partners may have been found.

Amino acid sequences for entries named in this document (tags omitted). A change or cut given only in a name is not applied to a line headed by its entry.
UniProt P12830: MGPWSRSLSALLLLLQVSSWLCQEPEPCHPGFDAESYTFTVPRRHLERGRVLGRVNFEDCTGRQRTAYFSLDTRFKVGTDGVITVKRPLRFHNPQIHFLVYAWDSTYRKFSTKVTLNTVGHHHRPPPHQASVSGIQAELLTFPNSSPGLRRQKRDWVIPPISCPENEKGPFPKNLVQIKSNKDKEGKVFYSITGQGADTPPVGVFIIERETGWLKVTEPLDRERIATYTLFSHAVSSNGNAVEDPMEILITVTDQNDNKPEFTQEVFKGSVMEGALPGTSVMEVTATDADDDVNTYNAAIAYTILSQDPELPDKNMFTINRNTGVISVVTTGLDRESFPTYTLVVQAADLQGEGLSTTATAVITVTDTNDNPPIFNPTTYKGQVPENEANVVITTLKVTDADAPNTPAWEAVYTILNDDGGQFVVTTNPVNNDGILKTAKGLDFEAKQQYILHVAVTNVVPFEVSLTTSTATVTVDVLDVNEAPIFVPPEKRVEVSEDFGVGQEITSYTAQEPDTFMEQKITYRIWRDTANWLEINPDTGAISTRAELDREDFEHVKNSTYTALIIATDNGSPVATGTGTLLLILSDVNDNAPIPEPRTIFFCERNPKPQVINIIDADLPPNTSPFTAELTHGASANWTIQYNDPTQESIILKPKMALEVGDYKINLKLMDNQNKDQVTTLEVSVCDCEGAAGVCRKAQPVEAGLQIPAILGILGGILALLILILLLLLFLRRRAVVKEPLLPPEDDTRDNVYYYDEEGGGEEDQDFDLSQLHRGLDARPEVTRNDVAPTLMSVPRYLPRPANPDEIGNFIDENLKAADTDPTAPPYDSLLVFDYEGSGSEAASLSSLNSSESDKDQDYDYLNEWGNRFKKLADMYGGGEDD
UniProt P98170: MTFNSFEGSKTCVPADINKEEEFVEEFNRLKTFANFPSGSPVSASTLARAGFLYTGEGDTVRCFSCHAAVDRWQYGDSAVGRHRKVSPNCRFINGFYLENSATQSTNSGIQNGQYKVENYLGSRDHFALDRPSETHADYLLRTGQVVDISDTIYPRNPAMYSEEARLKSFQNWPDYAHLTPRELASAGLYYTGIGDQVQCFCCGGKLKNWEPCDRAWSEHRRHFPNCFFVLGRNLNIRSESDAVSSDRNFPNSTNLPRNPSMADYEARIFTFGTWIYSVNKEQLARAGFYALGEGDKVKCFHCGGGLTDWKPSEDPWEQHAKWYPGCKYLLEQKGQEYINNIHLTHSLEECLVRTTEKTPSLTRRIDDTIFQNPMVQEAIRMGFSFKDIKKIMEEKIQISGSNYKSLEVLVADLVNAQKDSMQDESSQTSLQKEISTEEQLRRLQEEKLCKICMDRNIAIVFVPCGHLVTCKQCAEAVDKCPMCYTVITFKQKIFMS

Target: BioID2-tagged soluble E-cadherin (sEcad, 1-707aa) (human) (UniProt P12830)
Assay: proximity labelling

binding: binds
Substance: Endogenous XIAP (X-linked inhibitor of apoptosis protein) (from UniProt P98170 1-497)
